# Reference: PubChem BioAssay AID504834 (National Center for Advancing Translational Sciences (NCATS), 2011)
# Screen size: about 320,000 compounds; about 22,000 (6.9%) were called active. This list was built around the results that the source calls inconclusive (neither active nor inactive); the mix of calls is not that of the screen. Calls follow the shape of the dose curve; as a rule, active = well fitted inhibition curve with a large enough effect; inconclusive = small, poorly fitted or top-dose-only effect, or another doubt; inactive = no such curve, though single readings can be large or run the other way. Where the call is inconclusive, the potency comes from a doubtful curve fit.
# Test: Primary qHTS for delayed death inhibitors of the malarial parasite plastid, 96 hour incubation
# Conditions: P. falciparum luciferase reporter growth; series mostly up to 28.7 µM; activity change, negative = inhibition: at the top concentration
# Outline: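 96 h incubation, 37 C, 5% CO2, of luciferase-reporter P. falciparum-infected RBCs (2% hematocrit, 0.05% parasitemia final) with test compounds; endpoint luminescence.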
# % is scaled to controls: 0 for no effect and ±100 for the full control effect; potency is read from the fitted curve at half-maximal effect.
Structure (SMILES),Potency,"activity change, negative = inhibition"
O=C1NC(=S)N(C(=O)c2ccc(F)cc2)/C1=C/c1cccnc1,"inconclusive: 9.28 µM [inhibitor, single point]",–
COc1ccc(NC(=O)c2cccc(N3C(=O)c4ccc(C(=O)Nc5ccc(OC)c(O)c5)cc4C3=O)c2)cc1O,"inconclusive: 13.1 µM [inhibitor, partial curve, poor fit]",–
O=C(/C=C/c1ccccc1)NC(NC(=S)Nc1ccc(Cl)cc1Cl)C(Cl)(Cl)Cl (stereo not given),–,inactive: 20.5%
COC(=O)c1ccc2c(=O)n(CC3CCCO3)c(SCC(=O)Nc3ccccc3OC)nc2c1 (stereo not given),–,inactive: 55.7%
CN(C)CC(NC(=O)c1cccc(S(=O)(=O)Nc2ccc3c(c2)OCO3)c1)c1ccccc1 (stereo not given),active: 4.15 µM,–
O=C(Nc1ccc2c(c1)OCCO2)c1cnn(-c2ccccc2)n1,–,inactive: 34%
Cc1nn(C)cc1CN1CCCC(C(=O)c2ccc(-c3ccccc3)c(F)c2)C1 (stereo not given),–,inactive: 0%
O=C(CNS(=O)(=O)c1ccccc1)OCC(=O)c1ccc([N+](=O)[O-])cc1,"inconclusive: 9.28 µM [inhibitor, single point]",–
CSc1ncccc1C(=O)NC1CCCCCCC1,"inconclusive: 0.37 µM [inhibitor, full curve, poor fit]",–
COc1cc(NC(=O)c2cc(C)nc3ccccc23)cc(OC)c1,–,inactive: 12%
COc1ccccc1-c1noc2ncnc(Nc3cccc(C)c3C)c12,"inconclusive: 14.7 µM [inhibitor, single point]",–
COCCNC(=S)NC(=O)c1ccc(C(C)(C)C)cc1,"inconclusive: 18.5 µM [inhibitor, single point]",–
COc1ccc(C(=O)Nn2c(SCC(=O)NC3CCCCC3)nc3ccccc3c2=O)cc1,"inconclusive: 18.5 µM [inhibitor, single point]",–
COC(=O)c1ccc(CN2C(=O)NC3(CCCc4ccccc43)C2=O)o1 (stereo not given),"inconclusive: 11.7 µM [inhibitor, partial curve]",–
COC(=O)[C@]1(CC(C)C)N[C@H](c2ccc(-c3ccc(Cl)c(Cl)c3)cc2)[C@@H]2C(=O)N(C)C(=O)[C@@H]21,active: 4.65 µM,–
COc1ccc(C(=O)Nc2cc(C)nn2-c2cccc(F)c2)cc1,"inconclusive: 4.15 µM [inhibitor, partial curve]",–
O=C(CSc1ccc2nnc(-c3cccnc3)n2n1)Nc1ccccc1,"inconclusive: 13.1 µM [inhibitor, single point]",–
COc1ccc(CNC(=O)C2CCN(S(=O)(=O)c3c(C)noc3/C=C/N(C)C)CC2)cc1,"inconclusive: 10.4 µM [inhibitor, single point]",–
O=c1cc(C(F)(F)F)nc(-n2[nH]c3c(c2=O)CCCC3)[nH]1,"inconclusive: 14.7 µM [inhibitor, single point]",–
Cc1ccc(SCc2nc(N)nc(Nc3ccccc3C)n2)cc1C,"inconclusive: 16.5 µM [inhibitor, single point]",–
N#Cc1cncc(-c2ccc3c(c2)OCCOCCOCCOCCOCCO3)n1,"inconclusive: 18.5 µM [inhibitor, single point]",–
COc1ccc(CC(=O)Nc2ccc(S(=O)(=O)N3CCC(C)CC3)cc2)c(OC)c1,"inconclusive: 18.5 µM [inhibitor, single point]",–
O=C(CCN1CCN(c2ccccc2)CC1)N/N=C/c1ccccc1OC(F)F,–,inactive: 44.3%
CCCN(C(=S)Nc1ccccc1)C1CCS(=O)(=O)C1 (stereo not given),"inconclusive: 0.0738 µM [inhibitor, full curve, poor fit]",–

# 6 entries from above, as tab-separated lines.
Structure (SMILES)	Potency	activity change, negative = inhibition
COc1ccc(NC(=O)c2cccc(N3C(=O)c4ccc(C(=O)Nc5ccc(OC)c(O)c5)cc4C3=O)c2)cc1O	inconclusive: 13.1 µM [inhibitor, partial curve, poor fit]	–
O=C(/C=C/c1ccccc1)NC(NC(=S)Nc1ccc(Cl)cc1Cl)C(Cl)(Cl)Cl (stereo not given)	–	inactive: 20.5%
COC(=O)c1ccc2c(=O)n(CC3CCCO3)c(SCC(=O)Nc3ccccc3OC)nc2c1 (stereo not given)	–	inactive: 55.7%
CN(C)CC(NC(=O)c1cccc(S(=O)(=O)Nc2ccc3c(c2)OCO3)c1)c1ccccc1 (stereo not given)	active: 4.15 µM	–
O=C(Nc1ccc2c(c1)OCCO2)c1cnn(-c2ccccc2)n1	–	inactive: 34%
Cc1nn(C)cc1CN1CCCC(C(=O)c2ccc(-c3ccccc3)c(F)c2)C1 (stereo not given)	–	inactive: 0%

# More compounds follow:

Structure (SMILES),Potency,"activity change, negative = inhibition"
COc1ccccc1C1CC(=O)NC(C)=C1C(=O)OCC1CCCO1 (stereo not given),"inconclusive: 18.5 µM [inhibitor, single point]",–
O=C(NCCc1ccc(F)cc1)C(=O)Nc1cc2c3c(c1)CC(=O)N3CCC2,"inconclusive: 7.38 µM [inhibitor, partial curve]",–
CCOc1ccc2nc(Nc3nc4ccc(NC(C)=O)cc4s3)sc2c1,"inconclusive: 10.4 µM [inhibitor, single point]",–
CC(C)CNc1nc(SCC(=O)Nc2ccccc2)nc(N2CCOCC2)n1,–,inactive: -26%
Oc1ccccc1N1CCN(c2ncnc3scc(-c4ccc(F)cc4)c23)CC1,"inconclusive: 1.04 µM [inhibitor, full curve]",–
CS(=O)(=O)c1ccc(N2CCN(S(=O)(=O)c3cccs3)CC2)c([N+](=O)[O-])c1,"inconclusive: 11.7 µM [inhibitor, partial curve, poor fit]",–
Cc1nc2scc(-c3ccccc3)c2c(=O)o1,"inconclusive: 16.5 µM [inhibitor, single point]",–
Cc1cc(N/N=C/c2ccccc2F)nc(NCc2ccccc2)n1,"inconclusive: 2.33 µM [inhibitor, full curve, poor fit]",–
C=CCNC(=S)NCc1ccccc1OC,"inconclusive: 10.4 µM [inhibitor, single point]",–
Fc1ccccc1OCCSc1ncnc2nc[nH]c12,active: 4.65 µM,–
O=S(=O)(c1cccc2cccnc12)N1CCN(c2ccc(F)cc2)CC1,active: 14.7 µM,–
CC(SCc1ccccc1)C(=O)NCc1ccccn1 (stereo not given),–,inactive: -3.43%
CCn1c(SCC(=O)N/N=C(/C)c2ccncc2)nc2ccccc21,"inconclusive: 9.28 µM [inhibitor, partial curve, poor fit]",–
COc1cc(C2CC(=O)Nc3cc(C)c(C)cc32)cc(OC)c1OC (stereo not given),"inconclusive: 10.4 µM [inhibitor, single point]",–
O=[N+]([O-])c1ccccc1S(=O)(=O)N1CCN(C2CCN(Cc3ccccc3)CC2)CC1,–,inactive: -16.2%
O=C(CSc1nnc(CNc2ccc(F)cc2)n1Cc1ccccc1)NCc1ccco1,"inconclusive: 18.5 µM [inhibitor, single point]",–
N#CCC(=O)Nc1ccc(C(=O)NCc2cccc(Cl)c2)cc1,"inconclusive: 20.8 µM [inhibitor, single point]",–
O=C1CCCC(=O)N1c1ccc(NCCOCCO)c([N+](=O)[O-])c1,–,inactive: 0%
COc1ccc(NC(=O)C23CC4CC(C2)CC(n2cnc(Br)n2)(C4)C3)c(OC)c1,"inconclusive: 6.57 µM [inhibitor, partial curve, poor fit]",–
O=C(c1cc(-c2ccccc2)n[nH]1)N1CCN(S(=O)(=O)c2ccccc2)CC1,"inconclusive: 10.4 µM [inhibitor, single point]",–
C/C(N)=C(/C#N)C(=O)COC(=O)c1cc(S(=O)(=O)N2CCCCC2)ccc1C,"inconclusive: 11.7 µM [inhibitor, single point]",–
Cc1nn(C)c(C(=O)Nc2ccc(S(=O)(=O)NC34CC5CC(CC(C5)C3)C4)cc2)c1Br,–,inactive: -91.5%
C=CCNC(=O)CC1C(=O)NCCN1Cc1c(F)cccc1Cl (stereo not given),"inconclusive: 4.15 µM [inhibitor, partial curve]",–
CCOC(=O)C1CCCN(S(=O)(=O)c2cc3c4c(c2)CCC(=O)N4CCC3)C1 (stereo not given),"inconclusive: 11.7 µM [inhibitor, single point]",–

Structure (SMILES),Potency,"activity change, negative = inhibition"
CCOC(=O)c1c(C)[nH]c(C(=O)N2CCC(C(=O)OCC)CC2)c1C,–,inactive: 11.9%
Cc1cc(C)c(C)c(S(=O)(=O)N2CCN(C(=O)c3ccc4c(=O)n5c(nc4c3)CCC5)CC2)c1C,"inconclusive: 11.7 µM [inhibitor, single point]",–
OC[C@H]1OC(O)[C@H](O)[C@@H]1O (stereo not given in full),–,inactive: 12.5%
Cc1ccc(S(=O)(=O)N(c2cc(Cl)c(O)c(Cl)c2)P(=O)(OC(C)C)OC(C)C)cc1,"inconclusive: 18.5 µM [inhibitor, single point]",–
CCN(CC)CCCN(Cc1cc2cc3c(cc2[nH]c1=O)OCO3)C(=S)NCCCN(C)C,"inconclusive: 4.15 µM [inhibitor, single point]",–
COc1ccccc1NS(=O)(=O)c1cccs1,"inconclusive: 6.57 µM [inhibitor, single point]",–
Cc1ccccc1N1OC2C(=O)N(c3ccc(F)cc3)C(=O)C2C1c1ccccn1 (stereo not given),–,inactive: 127%
Cn1c(=O)c2cc3ccccc3nc2n(C)c1=O,–,inactive: 21.1%
O=c1cc(COc2ccccc2[N+](=O)[O-])nc2sccn12,"inconclusive: 4.15 µM [inhibitor, partial curve]",–
CCCCNc1c([N+](=O)[O-])cc(C(=O)O)cc1[N+](=O)[O-],–,inactive: -2.89%
O=C(c1ccco1)N(Cc1cccc([N+](=O)[O-])c1)c1ccc(Br)cc1,"inconclusive: 18.5 µM [inhibitor, single point]",–
COc1ccc(CCN(C)CCC(=O)Nc2cccc(C)c2)cc1OC,"inconclusive: 3.29 µM [inhibitor, partial curve, poor fit]",–
COc1ccc2cc(C#N)c(SCC(=O)N3CCCC3)nc2c1,–,inactive: 138%
Cc1c(C(=O)OCC(=O)Nc2c(C)n(C)n(-c3ccccc3)c2=O)cccc1[N+](=O)[O-],–,inactive: -7.07%
O=C(c1cc([N+](=O)[O-])ccc1N1CCOCC1)N1CCN(c2ccc([N+](=O)[O-])cc2)CC1,active: 9.28 µM,–
Cc1nnsc1C(=O)Nc1ccccc1Cl,–,inactive: -18.9%
CN(Cc1ccccc1)Cc1nc2c([nH]1)c(=O)[nH]c(=O)n2C,active: 10.4 µM,–
CN(C)c1ccc(/C=C/c2ccc3ccccc3n2)cc1,"inconclusive: 0.928 µM [inhibitor, full curve, poor fit]",–
O=C(CCCCCn1nnc2ccccc2c1=O)Nc1ccccc1F,–,inactive: 0%
CCOC(=O)C1CCN(C(=O)CN2C(=O)CSc3ccc(S(=O)(=O)N4CCOCC4)cc32)CC1,–,inactive: 58.2%
CC(C)NC(=O)c1cc(-c2ccc(Br)cc2)on1,"inconclusive: 11.7 µM [inhibitor, single point]",–
COc1ccc(/C=N/NC(=O)c2nn(-c3ccc(C)c(C)c3)c(=O)c3ccccc23)cc1,"inconclusive: 16.5 µM [inhibitor, single point]",–
